The supplement of paper PMC3334620
Whole data set: some 33,000 sequences, median “E-score (-0.5 to 0.5)” near -8e-05, cut for the highest 2% near 0.23. This is one part of the list.

Molecular target: T1, Nrg2 (UniProt P38082)
T1 sequence: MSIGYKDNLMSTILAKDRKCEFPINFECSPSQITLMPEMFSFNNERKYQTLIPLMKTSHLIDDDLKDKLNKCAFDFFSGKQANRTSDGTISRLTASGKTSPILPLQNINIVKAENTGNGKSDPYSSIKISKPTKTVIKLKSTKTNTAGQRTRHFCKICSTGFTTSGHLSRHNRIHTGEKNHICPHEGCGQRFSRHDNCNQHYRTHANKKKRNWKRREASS
Assay: PBM E-score (8-mer binding enrichment) (E-score (-0.5 to 0.5)); higher = stronger / more preferred TF binding
Settings: protein concentration: 100 nM; construct: GST-full length
Summary of the method: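 Yeast transcription factors, full-length or as DNA-binding domains, were expressed with a GST tag using PURExpress in vitro transcription/translation. At about 100-200 nM they were applied to universal all-10-mer Agilent arrays, double-stranded by primer extension on fresh or once-stripped slides. Fluorescent anti-GST detected bound protein, and masliner normalised the scans. E-scores for ungapped eight-base words, pooled with reverse complements, came from the Universal PBM Analysis Suite.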

Row | Sequence | PBM E-score
1 | ACCGCTCC | -0.0686
2 | ACAGTCAT | -0.0898
3 | AACAGTCA | -0.014
4 | ATGAAGAG | 0.00699
5 | GTTCAAAC | 0.194
6 | CTTCGAAA | -0.169
7 | AAGTGAGG | -0.151
8 | ATGACTCA | -0.00717
9 | CCATGCCC | -0.111
10 | CTCACGCA | 0.353
11 | CCTGGATC | 0.0126
12 | CTGCGCAG | 0.0344
13 | ATCTTCTC | 0.0597
14 | CGAACCTA | -0.141
15 | ACCCGCAA | -0.159
16 | ACTTGTTA | 0.124
17 | ATTATAAC | -0.0156
18 | CTGGGCCA | -0.209
19 | AGGAGTCG | -0.125
20 | GCGACTGA | -0.118
21 | GTGTTAGA | 0.0335
22 | AAATCTAG | -0.0302
23 | ATGCCAAC | 0.103
24 | CAACGATA | 0.0152
25 | CAGCACAG | 0.158

Row | Sequence | PBM E-score
26 | AGATCCGC | 0.0351
27 | TCAGGCGA | -0.0146
28 | ATTAGTGC | 0.23
29 | GCTGGCAA | 0.132
30 | GAACAATA | 0.277
31 | AATAGGGA | 0.0503
32 | CACAGCGG | -0.0638
33 | CAGAAGAG | -0.143
34 | ACTATCTA | 0.132
35 | ATTCCGTG | 0.126
36 | GAGAAGAC | -0.0478
37 | AGGAAGAT | 0.0139
38 | AAATTTGT | 0.121
39 | CCGTCGCG | -0.0239
40 | GGTGTTTA | 0.0473
41 | CAGCCTCG | -0.0527
42 | GAGCAAGA | -0.00443
43 | GTTCGGGA | 0.101
44 | CCGAGAGG | -0.122
45 | AGAATGTG | 0.0423
46 | CCTGCCCG | -0.0397
47 | GTGAGATA | 0.102
48 | CTTTACCA | -0.131
49 | CCGTGCCG | -0.129
50 | CCACGAAG | -0.0617

Row | Sequence | PBM E-score
51 | ATCCGAGC | -0.0814
52 | CACGCCAG | -0.0203
53 | AGACTAAA | 0.0838
54 | CGTACAAA | 0.0465
55 | ATGTTTAC | 0.0676
56 | CACGTCAG | -0.0637
57 | ATAACTAA | 0.0389
58 | ACTGGTCC | -0.138
59 | CGTAGGAG | -0.133
60 | GGAGGTGA | -0.0454
61 | TCCATCAA | 0.126
62 | AAACCTTG | -0.0667
63 | GGCATTAA | -0.00455
64 | GGCTGCAC | -0.0293
65 | GATGCTTA | -0.132
66 | AGTCAACC | -0.00933
67 | GCGCAGAA | 0.248
68 | AAGTATCT | 0.0414
69 | CGCTCAAC | -0.0545
70 | AGCAGGAT | -0.00267
71 | ACCCCCGC | -0.239
72 | ACATTCGA | -0.0286
73 | ATAATAAT | 0.056
74 | GTTGGGAA | 0.0635
75 | GAACAGAC | -0.0624

Another view of part of the listing above:
Row	Sequence	PBM E-score
41	CAGCCTCG	-0.0527
42	GAGCAAGA	-0.00443
43	GTTCGGGA	0.101
44	CCGAGAGG	-0.122
45	AGAATGTG	0.0423
46	CCTGCCCG	-0.0397
47	GTGAGATA	0.102
48	CTTTACCA	-0.131
49	CCGTGCCG	-0.129
50	CCACGAAG	-0.0617
51	ATCCGAGC	-0.0814
52	CACGCCAG	-0.0203
53	AGACTAAA	0.0838
54	CGTACAAA	0.0465
55	ATGTTTAC	0.0676
56	CACGTCAG	-0.0637
57	ATAACTAA	0.0389
58	ACTGGTCC	-0.138
59	CGTAGGAG	-0.133
60	GGAGGTGA	-0.0454
61	TCCATCAA	0.126
62	AAACCTTG	-0.0667
63	GGCATTAA	-0.00455
64	GGCTGCAC	-0.0293
65	GATGCTTA	-0.132
66	AGTCAACC	-0.00933
67	GCGCAGAA	0.248
68	AAGTATCT	0.0414
69	CGCTCAAC	-0.0545
70	AGCAGGAT	-0.00267
71	ACCCCCGC	-0.239
72	ACATTCGA	-0.0286
73	ATAATAAT	0.056

Continuation.

Row | Sequence | PBM E-score
76 | AGCCGGGC | -0.233
77 | GGGATATA | 0.091
78 | GAGCAGGC | -0.161
79 | TAGGCCAA | -0.0144
80 | ATCATAAG | -0.085
81 | AGCCCCGA | -0.0985
82 | ATTCGATC | 0.0271
83 | ACTGAAGT | 0.0752
84 | GACAGGCA | -0.0795
85 | GTGGGTAA | -0.0326
86 | CACGCGCC | 0.00626
87 | CGGTGTAA | -0.21
88 | AAAGTATT | 0.0932
89 | GGTATAGA | -0.0387
90 | TTATGGAA | 0.063
91 | GTCAGAGA | -0.0898
92 | ATGCAAAC | 0.14
93 | ATTGACGA | 0.0238
94 | ACTTTTAC | 0.163
95 | CAGCCTGA | -0.0362
96 | CCCATAAA | -0.0549
97 | ACAGGAGT | -0.0584
98 | AGCACGGC | 0.0263
99 | ACTTAGAA | -0.136
100 | ATCCAATC | 0.0524

Row | Sequence | PBM E-score
101 | GAGTCCCC | -0.0963
102 | TACGCTGA | 0.152
103 | AGAAATAA | 0.206
104 | GCCATAGA | 0.032
105 | AATGGTGA | 0.00084
106 | CGGGCTGA | -0.151
107 | AGACTTAA | -0.173
108 | CGGCGAAA | 0.101
109 | AATCTTAA | 0.0405
110 | AATAAATG | 0.158
111 | AAACAATG | 0.0814
112 | ATCCGGAG | 0.0282
113 | CGCCTGTA | -0.0188
114 | CATGTCTA | -0.0383
115 | AGAAGTCG | -0.0691
116 | GTGGGCTA | -0.14
117 | CCCACCGG | -0.314
118 | GTGGATGA | 0.108
119 | ACATGCAT | 0.046
120 | CAAGTTCC | -0.0773
121 | AGATAGAG | 0.128
122 | GAACCAGA | -0.0744
123 | GGCCCCGA | 0.0348
124 | ACTGTAAC | 0.0921
125 | CAGTTGAA | 0.0235

Row | Sequence | PBM E-score
126 | ACGCATCA | 0.0761
127 | CGGTCAAG | -0.0764
128 | AAGTAGCG | -0.0441
129 | ATGGCACC | -0.102
130 | CGCGTTGC | 0.18
131 | CTTGACCA | -0.1
132 | AGTTTTAC | 0.0462
133 | CGGGTGCC | -0.111
134 | GGGGGTCA | -0.381
135 | AGAATTCG | 0.06
136 | TGTTTGAA | -0.00474
137 | ACGTGGTG | -0.139
138 | CGGCTAAA | 0.0274
139 | GACGCGTC | 0.00341
140 | CCTAACGA | -0.038
141 | AACATGCG | 0.101
142 | CTCCCCGC | 0.139
143 | AGGAAGTA | 0.067
144 | AAAAAGAT | 0.0537
145 | AGGATGCG | -0.0569
146 | GTTCCGTA | 0.117
147 | ACTAGAAG | -0.196
148 | GTATACCA | 0.0034
149 | AAACACTA | 0.0724
150 | AAAAGGGA | -0.00461

Another view of part of the listing above:
ATGGCACC
  PBM E-score: -0.102
CGCGTTGC
  PBM E-score: 0.18
CTTGACCA
  PBM E-score: -0.1
AGTTTTAC
  PBM E-score: 0.0462

Later entries:

Row | Sequence | PBM E-score
151 | CCGAAGAC | -0.00487
152 | CGCGTTGA | 0.0819
153 | ATCCAGGC | 0.0212
154 | CTCTAGCC | -0.283
155 | GGAAGCCC | -0.0876
156 | CGTAGAGA | -0.00352
157 | CTCGCCGC | 0.0721
158 | AACCCGAG | -0.0529
159 | GGTCCCTA | 0.227
160 | CGATATAC | 0.113
161 | CTGTCGTA | 0.0568
162 | GCCCTCAA | -0.252
163 | ACCGGAGA | 0.109
164 | CTCTATTC | 0.0238
165 | GTTTTACA | 0.036
166 | GTAATGAC | -0.0415
167 | ATCCACGC | -0.113
168 | CACTGCGA | -0.0817
169 | ACGTGCTA | -0.181
170 | CTTCTCAA | -0.0328
171 | GCGTACCC | 0.00443
172 | ACCTTTAT | -0.159
